According to doi:10.1101/2022.10.19.512833 (bioRxiv, 2022):
No constants are given. Whether binding was seen depends on the method and setting. In cells and extracts the contact can be indirect. Here binding means that the protein was enriched with, or labelled near, the bait; the list need not be complete.

The substances below were run against GAG_(449-464) (HIV-1) biotinylated peptide, double repeat (Human immunodeficiency virus type 1 (HIV-1)) (UniProt P04591) (assay: affinity purification with mass spectrometry).

Q: For MVB12A (from UniProt Q96EY5 1-273), which binding is on record?
A: Its binding is “binds”.

Q: How did the binding turn out when VPS28 (from UniProt Q9UK41 1-221) was run?
A: Its binding is “binds”.

Q: With VPS37C (from UniProt A5D8V6 1-355) as the substance, how does the binding read?
A: Its binding is “binds”.
